From PubChem BioAssay AID2685 (National Center for Advancing Translational Sciences (NCATS), 2010) come the findings set out here.

The nature of the test: qHTS Assay for Lipid Storage Modulators in Drosophila S3 Cells.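 As to cell number change: cells counted by Cell Tracker Red CMTPX staining in the red channel.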 To be noted: BODIPY lipid droplet fluorescence, 18-24 h; for cell number change: measured here: cell count max response, cells fed with added oleic acid. A digest of the protocol:
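Laser-scanning cytometry quantifies lipid droplet accumulation (500–530 nm total intensity; droplet/cell object ratio) in oleic acid-fed (400 uM added) Drosophila S3 cells treated with a concentration series. 20 uM Triacsin C defined 100% inhibition.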
(qHTS replaces the single test concentration by a dilution series.)

[1] abbreviates: measured here: cell number channel AC50, cells fed with added oleic acid.
The mark [2] stands for this setting: measured here: lipid fluorescence (Fed channel) AC50, cells fed with added oleic acid.

The other results are listed elsewhere or left out. Shown are side measurements of this screen, not its main read-out; they come without a call. The list favours compounds with an active or inconclusive main result. Words in brackets tell the shape of the fitted curve; partial curves, single points and poor fits give uncertain potencies.

For `Cc1ccccc1C(=O)N1CCN(c2ccc(NC(=O)c3cccs3)cc2)CC1`, the cell number change is -48.5%. For the same compound, under setting [1], the half-maximal activity concentration (AC50) (in general, the midpoint of the concentration-response curve, whichever way the signal moves) was 29100 nM [falling, single point].

Take `O=C(O)c1cccnc1Sc1ccccc1Cl`: the cell number change was -47.4%. For the same compound, the AC50 under setting [1] was 32600 nM [falling, single point]. For the same compound, under setting [2], the concentration at half-maximal activity (AC50) is 29100 nM [falling, partial curve, poor fit].

With `CSCCC(=O)N1CCCC(N2CCN(c3cccc(C(F)(F)F)c3)CC2)C1` (centres undefined), the cell number change came out at 2.85%. Further, under setting [2], the AC50 was 1160 nM [rising, full curve, poor fit].

On to `O=C(O)c1cccc(-n2c(-c3cnccn3)n[nH]c2=S)c1`, for which the cell number change was -33.7%. Moreover, the half-maximal activity concentration (AC50) under setting [1] is 18400 nM [falling, single point]. Further, the AC50 under setting [2] is 29100 nM [falling, single point].

With `Cc1ccc(C(C(=O)NC2CCCCC2)N(C(=O)Cc2c[nH]c3ccccc23)c2ccccc2)o1` (centres undefined), the cell number change was 4.6%.

`CN1CCN(S(=O)(=O)c2ccc(NC(=S)NC(=O)C(C)(C)C)cc2)CC1`: the cell number change is -7.52%. In addition, the half-maximal activity concentration (AC50) under setting [2] is 29100 nM [falling, single point].

As for `O=C1CCC(O)CCN1CCSc1ccccc1` (centres undefined), the cell number change is -9.71%. Besides, the AC50 under setting [2] is 4.61 nM [rising, full curve, poor fit].

As to `COc1ccc(CCN2CCCn3c2nc2c3c(=O)n(CC(C)C)c(=O)n2C)cc1OC`, the cell number change is -32.6%. The AC50 under setting [1] is 20600 nM [falling, single point]. Moreover, the concentration at half-maximal activity (AC50) under setting [2] is 29100 nM [falling, single point].

On to `COc1ccc(-c2n[nH]c(C)c2-c2ccc(OC)c(OC)c2)c(O)c1`, for which the cell number change turned out to be 75.2%. In addition, the concentration at half-maximal activity (AC50) under setting [1] was 820 nM [rising, full curve]. Under setting [2], the AC50 was 10300 nM [rising, partial curve].

Take `CC1(C)CC(=O)C(CO)=C(c2cccc3ccccc23)C1=O`: the cell number change was -2.13%. Also, the half-maximal activity concentration (AC50) under setting [2] is 1640 nM [rising, partial curve, poor fit].

Turning to `CC(Oc1cccc(Cl)c1)C(=O)Nc1cc(Cl)ccc1N1CCOCC1` (centres undefined), the cell number change is -28%. Moreover, the AC50 under setting [2] is 146 nM [rising, full curve, poor fit].

Regarding `COC(=O)c1c(NC(=O)CN2CCCc3ccccc32)sc(C)c1C`, the cell number change worked out at 3.5%. Further, the concentration at half-maximal activity (AC50) under setting [2] is 1840 nM [rising, partial curve].

On to `Cc1ccc(NC(=O)c2cccnc2)cc1S(=O)(=O)N1CCOCC1`, for which the AC50 under setting [2] is 3660 nM [rising, partial curve].

On to `c1ccc(-c2ncc(CSc3nncn3-c3ccccc3)s2)cc1`, for which the AC50 by setting is: under setting [1], 820 nM [rising, partial curve]; under setting [2], 1460 nM [rising, partial curve].

With `CCCCOC(=O)C1=C(C)Nc2nnnn2C1c1ccccc1Cl` (centres undefined), the cell number change is -58.2%. Moreover, under setting [1], the AC50 was 29100 nM [falling, single point]. In addition, the concentration at half-maximal activity (AC50) under setting [2] is 6510 nM [rising, single point].

With `CCC(=O)Oc1ccc(/C(CC)=C(\CC)c2ccc(OC(=O)CC)cc2)cc1`, the cell number change was found to be 3.19%. Under setting [1], the concentration at half-maximal activity (AC50) is 259 nM [falling, full curve, poor fit]. Moreover, the concentration at half-maximal activity (AC50) under setting [2] is 461 nM [falling, single point].

With `C=CCOc1ccc(/C=N/n2cncn2)cc1OC`, the cell number change was 108%. For the same compound, the AC50 under setting [1] was 18400 nM [rising, partial curve].

For `CC12CCC(=O)N1C(C(=O)Nc1nc(-c3cc(F)ccc3F)cs1)CS2` (centres undefined), the cell number change was found to be 59%. For the same compound, the AC50 under setting [1] was 18400 nM [rising, single point].

Take `O=c1[nH]c(O)c(/C=C2\C=Nc3ccc(Br)cc32)[nH]1`: the cell number change was -12.1%.

Consider `CC1(C)CC(=O)N(c2cccc(C(F)(F)F)c2)C(=O)C1`, for which the cell number change turned out to be 2.62%. Moreover, under setting [2], the AC50 is 5800 nM [rising, single point].

As to `Cc1[nH]n(-c2ccccc2)c(=O)c1CCOC(=O)c1ccc(C(F)(F)F)cc1`, the cell number change is -23.7%. In addition, the concentration at half-maximal activity (AC50) under setting [2] is 206 nM [falling, full curve, poor fit].

On to `CCN1C2=C(C(=O)CCC2)C(c2ccc(O)c(Br)c2)C2=C1CCCC2=O`, for which the cell number change was -31.8%. For the same compound, the half-maximal activity concentration (AC50) under setting [1] was 73.1 nM [falling, full curve, poor fit].

On to `Cc1ccc2nc(SC(C)C(=O)NC3CCCc4ccccc43)[nH]c2c1` (centres undefined), for which the cell number change was -12.7%. Also, the AC50 under setting [2] is 18400 nM [falling, single point].

Consider `CCn1nccc1C(=O)Nc1ccc(Cl)cn1`, for which the cell number change is -96.9%. The concentration at half-maximal activity (AC50) under setting [1] was 651 nM [falling, full curve]. Moreover, the concentration at half-maximal activity (AC50) under setting [2] was 920 nM [falling, full curve, poor fit].

In the case of `CC(=O)C1=NN(c2ccccc2)C(c2cccs2)N1c1ccc(N(C)C)cc1` (centres undefined), the cell number change was -63.6%. The half-maximal activity concentration (AC50) under setting [1] was 16400 nM [falling, single point]. Moreover, the AC50 under setting [2] was 20600 nM [falling, partial curve].

Consider `Cn1nc(C(=O)OCC(=O)Nc2sccc2C(N)=O)c2ccccc2c1=O`, for which the AC50 was 1640 nM [rising, full curve, poor fit] under setting [1] and 1840 nM [rising, partial curve] under setting [2].

For the compound `CCOc1ccc(S(=O)(=O)N2CCC(C(=O)N3CCCCCC3)CC2)cc1C`, under setting [2], the AC50 was 1160 nM [rising, full curve].

As for `O=C(Nc1cccc(NC(=O)c2cccnc2)c1)c1cccnc1`, the half-maximal activity concentration (AC50) under setting [2] was 6510 nM [rising, single point].

Consider `CCCn1c(CC)nc([N+](=O)[O-])c1Sc1ccc(C)cc1`, for which the cell number change was -15.6%. Further, the AC50 under setting [2] was 164 nM [rising, full curve, poor fit].

In the case of `COc1ccc(Cn2nnnc2C(C(C)C)N2CCN(c3ccccc3OC)CC2)cc1` (centres undefined), the cell number change is 29%. Under setting [2], the concentration at half-maximal activity (AC50) was 32600 nM [falling, single point].

For `Cc1ccc(N(C(=O)CNC(=O)c2ccco2)C(C(=O)NC2CCCC2)c2cccnc2)c(C)c1` (centres undefined), the cell number change was found to be 6.41%. Moreover, the AC50 under setting [2] is 116 nM [falling, full curve].

Regarding `COc1cc(NC(=O)c2cnc(N)s2)cc(C(=O)Nc2cccc(C(F)(F)F)c2)c1`, the cell number change is -9%. For the same compound, the half-maximal activity concentration (AC50) under setting [1] is 2060 nM [rising, partial curve, poor fit]. Also, the AC50 under setting [2] was 3260 nM [rising, partial curve].

Take `O=C(C1CCCN(S(=O)(=O)c2ccc(Br)s2)C1)N1CCN(c2ccccc2)CC1` (centres undefined): the cell number change is -7.94%. Under setting [2], the AC50 is 82 nM [falling, full curve, poor fit].

Regarding `C/C(N)=C(/C#N)C(=O)COC(=O)[C@@H](NC(=O)c1ccccc1Cl)C(C)C`, the cell number change turned out to be 41.6%. In addition, the AC50 under setting [2] is 16400 nM [rising, single point].

Regarding `CC(=O)N1CCN(S(=O)(=O)c2cccc(C(=O)NCCC3=CCCCC3)c2)CC1`, the cell number change is -25.7%. In addition, the AC50 under setting [2] is 920 nM [falling, full curve].
